PubChem BioAssay AID652053 (Broad Institute, 2013)
Out of some 1,300 compounds screened, about 930 (72%) were called active.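 The calls were made as follows: active = fitted curve reaches 40% activation signal increase at or below the top valid tested concentration in every replicate test; inconclusive = replicate tests disagree in their calls; inactive = all replicate tests inactive, including effects opposite the expected signal rise.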 So high a share suggests a set chosen from earlier hits. Only a part is listed here, and it is no random draw. Potency and affinity values are given separately.

Assay: suppression of miR-122 activity, Renilla luciferase sensor – cell-based, Huh7 psiCHECK-miR122, cherry-pick, dose response (AID 652053)
Details: Huh7 psiCHECK-miR122 Renilla luciferase reporter, 48 h; at 35 µM (top of the series)

Row | Structure (SMILES) | activation (miR-122 inhibition)
1 | Cc1oc2ccc(OC(=O)N(C)C)cc2c1C(=O)OC(C)C | inactive: 5.98%
2 | COc1cc2c(c(OC)c1OC)-c1ccc(O)c(=O)cc1C(NC(C)=O)CC2 (configuration not stated) | inactive: 25.9%
